Laboratory results published in patent US20110237498A1.
No constants are given. Whether binding was seen depends on the method and setting. Some results given as binding are weak or reduced against the parent protein; the word gives no strength. Where a sequence is shown, tags or fusion partners need not be part of it.

Legend:
[1] = target: T1, murine CD47 on CD47+/+ (WT) murine splenocytes (mouse) (UniProt Q61735); test: flow cytometry on murine splenocytes
T1 sequence (looked up): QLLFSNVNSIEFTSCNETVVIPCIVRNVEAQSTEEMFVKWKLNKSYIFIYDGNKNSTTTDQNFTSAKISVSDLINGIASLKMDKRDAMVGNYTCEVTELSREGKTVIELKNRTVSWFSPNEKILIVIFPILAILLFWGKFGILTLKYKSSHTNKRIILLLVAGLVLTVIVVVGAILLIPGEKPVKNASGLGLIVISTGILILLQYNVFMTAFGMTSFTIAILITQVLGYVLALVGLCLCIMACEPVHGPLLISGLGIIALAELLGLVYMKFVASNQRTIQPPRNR

[2] = target: T1, murine CD47 on CD47+/+ (WT) murine splenocytes (mouse); test: flow cytometry on murine splenocytes, 5 µg/ml murine SIRPα-Fc

- binding [1]: binds
- binding [2]: binds
B1: murine SIRPα-Fc (Fc fusion, mouse, UniProt P97797 32-373, looked up, not shown: a dimerising Fc or GST)
chain: KELKVTQPEKSVSVAAGDSTVLNCTLTSLLPVGPIRWYRGVGPSRLLIYSFAGEYVPRIRNVSDTTKRNNMDFSIRISNVTPADAGIYYCVKFQKGSSEPDTEIQSGGGTEVYVLAKPSPPEVSGPADRGIPDQKVNFTCKSHGFSPRNITLKWFKDGQELHPLETTVNPSGKNVSYNISSTVRVVLNSMDVNSKVICEVAHITLDRSPLRGIANLSNFIRVSPTVKVTQQSPTSMNQVNLTCRAERFYPEDLQLIWLENGNVSRNDTPKNLTKNTDGTYNYTSLFLVNSSAHREDVVFTCQVKHDQQPAITRNHTVLGFAHSSDQGSMQTFPDNNATHNWN
